Laboratory results published in ChEMBL document CHEMBL5518238, “Structure-Activity Relationship (SAR) Studies of Novel Monovalent AR/AR-V7 Dual Degraders with Potent Efficacy against Advanced Prostate Cancer” (J Med Chem, 2024).

Test system: CWR22R
Assay: cells
Type: functional, cell-based
Conditions: Homo sapiens, 22Rv1, 48 h

## C[C@](O)(Cn1cc(F)cn1)C(=O)Nc1ccc(C#N)c(C(F)(F)F)c1
  IC50: 12.9 µM
